One assay has as its target HBF-BRD2 (human) (UniProt P25440). Kind of assay: co-IP; HBF-BRD2 or FLAG-BRD4 as bait; nuclear extracts of HBF-BRD2-TO or FLAG-BRD4-TO cells treated with Dox for 24 h, two-step immunoprecipitation with anti-His6 and anti-FLAG; immunoblotting; T-REx 293 cells as control.
Assay [1] addresses HBF (His6-biotinylation sequence-FLAG tag)-LYAR (human) (UniProt Q9NX58). As to the kind of experiment: pull-down; HBF-LYAR as bait; two-step pulldown by His6 and FLAG tags from nuclear extract of Dox-treated HBF-LYAR-TO cells, immunoblotting of associated proteins; also after siRNA knockdown (72 h) of treacle, UBF, SPT5, BRD2 or BRD4; T-REx 293 cells as control.

Amino acid sequences for entries named in this document (tags omitted).
UniProt P25440: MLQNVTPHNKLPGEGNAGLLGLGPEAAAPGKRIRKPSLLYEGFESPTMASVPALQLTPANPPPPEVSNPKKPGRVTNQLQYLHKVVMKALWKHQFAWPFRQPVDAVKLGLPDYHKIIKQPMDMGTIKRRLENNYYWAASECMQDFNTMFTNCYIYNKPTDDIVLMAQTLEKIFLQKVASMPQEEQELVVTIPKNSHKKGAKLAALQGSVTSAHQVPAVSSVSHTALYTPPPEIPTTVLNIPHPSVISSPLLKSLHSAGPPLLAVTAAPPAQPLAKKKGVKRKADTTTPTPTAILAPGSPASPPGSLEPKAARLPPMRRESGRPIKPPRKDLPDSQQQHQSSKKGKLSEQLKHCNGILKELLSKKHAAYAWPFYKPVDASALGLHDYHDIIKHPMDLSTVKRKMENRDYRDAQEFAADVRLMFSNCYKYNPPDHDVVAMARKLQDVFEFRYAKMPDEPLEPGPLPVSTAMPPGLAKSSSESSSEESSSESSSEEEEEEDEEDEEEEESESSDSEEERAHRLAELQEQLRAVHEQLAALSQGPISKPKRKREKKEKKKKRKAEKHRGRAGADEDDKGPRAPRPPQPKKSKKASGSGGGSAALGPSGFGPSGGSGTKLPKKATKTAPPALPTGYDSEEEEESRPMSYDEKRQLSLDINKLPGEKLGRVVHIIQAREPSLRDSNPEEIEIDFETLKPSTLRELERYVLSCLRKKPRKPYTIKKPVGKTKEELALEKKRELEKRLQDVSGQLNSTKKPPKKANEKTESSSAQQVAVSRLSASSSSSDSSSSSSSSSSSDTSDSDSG

No constants are given. Whether binding was seen depends on the method and setting. Binding seen in cells or lysates may run through a third protein. Some results given as binding are weak or reduced against the parent protein; the word gives no strength.

The record followed here is article PMC6821171.

B1: JADE3 (protein, UniProt Q92613 1-823)
chain: MKRHRPVSSSDSSDESPSTSFTSGSMYRIKSKIPNEHKKPAEVFRKDLISAMKLPDSHHINPDSYYLFADTWKEEWEKGVQVPASPDTVPQPSLRIIAEKVKDVLFIRPRKYIHCSSPDTTEPGYINIMELAASVCRYDLDDMDIFWLQELNEDLAEMGCGPVDENLMEKTVEVLERHCHENMNHAIETEEGLGIEYDEDVICDVCRSPDSEEGNDMVFCDKCNVCVHQACYGILKVPEGSWLCRSCVLGIYPQCVLCPKKGGALKTTKTGTKWAHVSCALWIPEVSIACPERMEPITKISHIPPSRWALVCNLCKLKTGACIQCSIKSCITAFHVTCAFEHGLEMKTILDEGDEVKFKSYCLKHSQNRQKLGEAEYPHHRAKEQSQAKSEKTSLRAQKLRELEEEFYSLVRVEDVAAELGMPTLAVDFIYNYWKLKRKSNFNKPLFPPKEDEENGLVQPKEESIHTRMRMFMHLRQDLERVRNLCYMISRREKLKLSHNKIQEQIFGLQVQLLNQEIDAGLPLTNALENSLFYPPPRITLKLKMPKSTPEDHRNSSTETDQQPHSPDSSSSVHSIRNMQVPQESLEMRTKSYPRYPLESKNNRLLASLSHSRSEAKESSPAWRTPSSECYHGQSLGKPLVLQAALHGQSSIGNGKSQPNSKFAKSNGLEGSWSGNVTQKDSSSEMFCDQEPVFSPHLVSQGSFRKSTVEHFSRSFKETTNRWVKNTEDLQCYVKPTKNMSPKEQFWGRQVLRRSAGRAPYQENDGYCPDLELSDSEAESDGNKEKVRVRKDSSDRENPPHDSRRDCHGKSKTHPLSHSSMQR
B1: the binding result with HBF-BRD2 (human) is on record as “binds”.

B2: Treacle protein (protein, UniProt Q13428 1-1488)
chain: MAEARKRRELLPLIYHHLLRAGYVRAAREVKEQSGQKCFLAQPVTLLDIYTHWQQTSELGRKRKAEEDAALQAKKTRVSDPISTSESSEEEEEAEAETAKATPRLASTNSSVLGADLPSSMKEKAKAETEKAGKTGNSMPHPATGKTVANLLSGKSPRKSAEPSANTTLVSETEEEGSVPAFGAAAKPGMVSAGQADSSSEDTSSSSDETDVEGKPSVKPAQVKASSVSTKESPARKAAPAPGKVGDVTPQVKGGALPPAKRAKKPEEESESSEEGSESEEEAPAGTRSQVKASEKILQVRAASAPAKGTPGKGATPAPPGKAGAVASQTKAGKPEEDSESSSEESSDSEEETPAAKALLQAKASGKTSQVGAASAPAKESPRKGAAPAPPGKTGPAVAKAQAGKREEDSQSSSEESDSEEEAPAQAKPSGKAPQVRAASAPAKESPRKGAAPAPPRKTGPAAAQVQVGKQEEDSRSSSEESDSDREALAAMNAAQVKPLGKSPQVKPASTMGMGPLGKGAGPVPPGKVGPATPSAQVGKWEEDSESSSEESSDSSDGEVPTAVAPAQEKSLGNILQAKPTSSPAKGPPQKAGPVAVQVKAEKPMDNSESSEESSDSADSEEAPAAMTAAQAKPALKIPQTKACPKKTNTTASAKVAPVRVGTQAPRKAGTATSPAGSSPAVAGGTQRPAEDSSSSEESDSEEEKTGLAVTVGQAKSVGKGLQVKAASVPVKGSLGQGTAPVLPGKTGPTVTQVKAEKQEDSESSEEESDSEEAAASPAQVKTSVKKTQAKANPAAARAPSAKGTISAPGKVVTAAAQAKQRSPSKVKPPVRNPQNSTVLARGPASVPSVGKAVATAAQAQTGPEEDSGSSEEESDSEEEAETLAQVKPSGKTHQIRAALAPAKESPRKGAAPTPPGKTGPSAAQAGKQDDSGSSSEESDSDGEAPAAVTSAQVIKPPLIFVDPNRSPAGPAATPAQAQAASTPRKARASESTARSSSSESEDEDVIPATQCLTPGIRTNVVTMPTAHPRIAPKASMAGASSSKESSRISDGKKQEGPATQVSKKNPASLPLTQAALKVLAQKASEAQPPVARTQPSSGVDSAVGTLPATSPQSTSVQAKGTNKLRKPKLPEVQQATKAPESSDDSEDSSDSSSGSEEDGEGPQGAKSAHTLGPTPSRTETLVEETAAESSEDDVVAPSQSLLSGYMTPGLTPANSQASKATPKLDSSPSVSSTLAAKDDPDGKQEAKPQQAAGMLSPKTGGKEAASGTTPQKSRKPKKGAGNPQASTLALQSNITQCLLGQPWPLNEAQVQASVVKVLTELLEQERKKVVDTTKESSRKGWESRKRKLSGDQPAARTPRSKKKKKLGAGEGGEASVSPEKTSTTSKGKAKRDKASGDVKEKKGKGSLGSQGAKDEPEEELQKGMGTVEGGDQSNPKSKKEKKKSDKRKKDKEKKEKKKKAKKASTKDSESPSQKKKKKKKKTAEQTV
Turning to B2, the binding entry in assay [1] is “binds”.
